At least one compound was matched to its structure with a doubt left.
Experiments:
F-actin = assay: Cytoskeleton staining and confocal microscope: actin filament (F-actin); type: cell-based, human; details: Table 1, + / -
Procedure: (§1) The cells were cultured on coverslips kept in a p60 Petri dish, and the coverslips were kept in a CO2 incubator for 16-20 hours. After being treated with or without PT-262, the cells were fixed in 4% parafomaldehyde solution for 60 minutes at 37° C. Then the coverslips were washed three times with PBS. The F-actin and β-tubulin were stained with 20 U/ml BODIPY FL phallacidin and anti-β-tubulin Cy3 for 30 minutes at 37° C., respectively. Finally, the nuclei were stained with 2.5 ug/ml Hoechst 33258 for 30 minutes. And the cells were added with 80% Glycerin and sealed with nail varnish. The samples were examined under a Leica confocal laser scanning microscope.

Microtubule = assay: Cytoskeleton staining and confocal microscope: microtubule (β-tubulin); type: cell-based, human; details: Table 1, + / -
Procedure: as §1

C=C1[C@@H](C)[C@H]2[C@H](Cc3ccccc3)NC(=O)[C@]23OC(=O)/C=C/[C@H](O)CCC[C@@H](C)C/C=C/[C@H]3[C@@H]1O [cytochalasin B]
-: mechanism: Actin polymerization (F-actin) | mechanism: Microtubule depolymerization (Microtubule) | mechanism: Microtubule polymerization (Microtubule)
